Results from patent US20230139883A1, “Peptides for Inducing Differentiation” (Shimadzu Corporation, priority 2020, published 2023).
These are yes or no findings as the source states them, for the method shown. Some entries that bind do so weakly or less than the wild type.

Amino acid sequences for entries named in this document (tags omitted). Residues count along the entry.
UniProt P11362, residues 22-376: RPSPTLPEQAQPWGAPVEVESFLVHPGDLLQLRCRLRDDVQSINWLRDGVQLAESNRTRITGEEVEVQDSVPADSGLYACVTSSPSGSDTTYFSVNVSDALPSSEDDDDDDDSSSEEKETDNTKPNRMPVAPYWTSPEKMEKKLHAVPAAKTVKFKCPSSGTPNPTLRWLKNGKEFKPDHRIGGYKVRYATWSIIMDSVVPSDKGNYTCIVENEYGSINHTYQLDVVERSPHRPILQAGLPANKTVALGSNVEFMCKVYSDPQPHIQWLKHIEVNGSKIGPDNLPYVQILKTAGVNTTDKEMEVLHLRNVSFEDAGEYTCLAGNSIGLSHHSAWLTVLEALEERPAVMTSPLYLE

Assays:
FGFR1 (FGF receptor 1) [1] = molecular target: FGFR1 (FGF receptor 1) (UniProt P11362); assay: heading of Example 11, same peptide as in Example 1 (SPR)
FGFR1 (FGF receptor 1) [2] = molecular target: FGFR1 (FGF receptor 1) (UniProt P11362); assay: SPR, Biacore T200, FGFR1 amine-coupled to the chip, peptide as analyte, 1:1 model

binding (FGFR1 (FGF receptor 1) [1]): binds
binding (FGFR1 (FGF receptor 1) [2]): binds
Binder: CAAELAALEAELAALEGVPGDNNGTRGKLYHLKNKLHRLKNAC [100nX (X is 9: SEQ ID NO: 9)]
